# Laboratory results taken from PMC10441990.
# Amino acid sequences for entries named in this document (tags omitted).
# UniProt P68559: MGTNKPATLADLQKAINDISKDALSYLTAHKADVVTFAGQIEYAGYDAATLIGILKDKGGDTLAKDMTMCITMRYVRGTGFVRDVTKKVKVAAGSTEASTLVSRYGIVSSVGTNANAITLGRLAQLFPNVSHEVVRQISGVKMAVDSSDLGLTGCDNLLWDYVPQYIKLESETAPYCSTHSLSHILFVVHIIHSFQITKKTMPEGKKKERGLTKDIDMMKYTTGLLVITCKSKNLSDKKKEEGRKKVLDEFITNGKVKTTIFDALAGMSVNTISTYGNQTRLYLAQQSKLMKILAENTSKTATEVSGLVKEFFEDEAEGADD
# UniProt A0A0F7JIC2: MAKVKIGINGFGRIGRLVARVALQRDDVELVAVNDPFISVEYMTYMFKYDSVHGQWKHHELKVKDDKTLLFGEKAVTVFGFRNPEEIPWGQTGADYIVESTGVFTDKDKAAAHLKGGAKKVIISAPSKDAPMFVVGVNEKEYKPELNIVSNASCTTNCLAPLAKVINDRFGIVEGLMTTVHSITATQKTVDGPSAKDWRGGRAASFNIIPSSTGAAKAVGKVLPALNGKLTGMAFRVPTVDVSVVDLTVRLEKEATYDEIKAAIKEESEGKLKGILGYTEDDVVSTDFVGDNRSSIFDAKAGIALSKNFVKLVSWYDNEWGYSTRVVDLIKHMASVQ
# Molecular target: RSV CP-GFP (rice stripe virus coat protein fused to GFP) (rice stripe virus) (UniProt P68559)
# Assay: affinity purification with mass spectrometry; CP-GFP expressed in N. benthamiana leaves as bait, total proteins incubated with GFP-Trap beads, eluate on SDS-PAGE, additional bands analysed by LC-MS/MS; non-fused GFP in parallel
substance,measurement,value
cytosolic glyceraldehyde-3-phosphate dehydrogenase 2 of N. benthamiana (endogenous) (from UniProt A0A0F7JIC2 1-337),binding,binds

# Results are given in words; binding and its absence hold for the method and conditions named. In cells and extracts the contact can be indirect. Here binding means that the protein was enriched with, or labelled near, the bait; the list need not be complete.
